Experimental data reported in patent US12398178B2, “Collections of peptides, peptide agents, and methods of use thereof” (Parabilis Medicines, Inc., priority 2018, dated 2025).
Part of at least one peptide drawing is inferred or uncertain, most often the ends. Starred links: 1 amine or outer side, 2 acyl side, 3 side chain; linkers in the order of their positions; H or OH if unused. Positions of bridges follow the written chain, without caps; N, C: chain ends. Residues, ends and D or L forms follow the SMILES beside them. X6 = O=C(C[*:1])Nc1cc(Cl)c(NC(=O)C[*:2])cc1Cl

Assay: Measurement of LogK (log k IAM by HPLC on IAM.PC.DD2 column)
Format: physicochemical
Settings: 50 mM ammonium acetate pH 7.4 / acetonitrile, 30° C.
Protocol: Measurement of LogK: LogK values were measured on a Agilent 1260 HPLC with UV detector (254,280 nm) using a IAM.PC.DD2 100×4.6 mm column (Regis Technologies 1-774011-300) with a 6.5 min gradient of 0-90% B with mobile phase A of 50 mM ammonium acetate pH 7.4, and mobile phase B of Acetonitrile. The temperature was 30° C., the flow rate 1.5 mL/min, and the injection volume 3-5 uL. Calibration mixture IAM was purchased from Bio-mimetic Chromatography Ltd and used to run calibration, calculate CHI IAM value, then calculate logk IAM using equation: log k IAM=0.046*CHI IAM+0.42.

| Compound | LogK |
| --- | --- |
| CC(C)C[C@@H]1NC(=O)[C@H](C)NC(=O)[C@H](C)NC(=O)[C@H](Cc2c[nH]c3ccccc23)NC(=O)[C@H](CCC(=O)O)NC(=O)[C@@H](NC(=O)[C@H](CCCNC(=N)N)NC(=O)[C@H](Cc2c[nH]cn2)NC(=O)[C@@H](NC(=O)[C@H](C)NC(=O)[C@@H]2CCCN2C(=O)[C@H](CC(=O)O)NC(=O)[C@H](C)N)[C@@H](C)O)CSCC(=O)Nc2cc(Cl)c(cc2Cl)NC(=O)CSC[C@@H](C(=O)N[C@@H](CCC(=O)O)C(=O)N[C@@H](CC(C)C)C(=O)N[C@H](C(N)=O)C(C)C)NC(=O)[C@H](Cc2c[nH]cn2)NC1=O [Compound 33] | 1.4 |
| CC[C@H](C)[C@@H]1NC(=O)[C@H](CC(C)C)NC(=O)[C@H](C)NC(=O)[C@H](C)NC(=O)[C@H](Cc2c[nH]cn2)NC(=O)[C@H](CCC(=O)O)NC(=O)[C@@H](NC(=O)[C@H](C)NC(=O)[C@H](Cc2c[nH]c3ccccc23)NC(=O)[C@H](CC(C)C)NC(=O)[C@H](C)NC(=O)[C@@H]2CCCN2C(=O)[C@H](CC(=O)O)NC(=O)[C@H](C)N)CSCC(=O)Nc2cc(Cl)c(cc2Cl)NC(=O)CSC[C@@H](C(=O)N[C@@H](CCC(=O)O)C(=O)N[C@H](C(=O)N[C@@H](CCC(N)=O)C(N)=O)[C@@H](C)O)NC1=O [Compound 42] (H-ADPALWACEHAALICETQ-NH2; linker 8-15 via X6; N-terminus and C-terminus assumed) | 1.3 |
